Paper PMC9243006
Results are given in words; binding and its absence hold for the method and conditions named. Some binding calls cover weakened binding; strength is not graded here. For some assays here: Sequences can lack the tags named with a protein.

T1: purified complement factor I (UniProt Q61129)
T1 sequence: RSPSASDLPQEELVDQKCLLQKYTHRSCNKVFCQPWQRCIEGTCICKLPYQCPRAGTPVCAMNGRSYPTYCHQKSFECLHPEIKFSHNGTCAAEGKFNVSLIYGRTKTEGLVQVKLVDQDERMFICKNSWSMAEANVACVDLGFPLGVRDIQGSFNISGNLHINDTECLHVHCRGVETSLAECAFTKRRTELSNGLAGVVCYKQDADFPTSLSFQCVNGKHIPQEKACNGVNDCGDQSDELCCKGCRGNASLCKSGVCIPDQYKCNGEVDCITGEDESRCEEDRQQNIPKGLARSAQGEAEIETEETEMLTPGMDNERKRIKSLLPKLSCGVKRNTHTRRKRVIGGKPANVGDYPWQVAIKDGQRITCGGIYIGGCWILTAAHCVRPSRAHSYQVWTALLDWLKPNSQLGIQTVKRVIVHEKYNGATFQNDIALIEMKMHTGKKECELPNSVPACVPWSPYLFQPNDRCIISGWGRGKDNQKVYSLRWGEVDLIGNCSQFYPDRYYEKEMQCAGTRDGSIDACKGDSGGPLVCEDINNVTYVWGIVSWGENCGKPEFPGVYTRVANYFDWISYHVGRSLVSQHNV

T2: Flag-tagged mouse CD46 (mCD46) expressed in HEK293T cells (mouse) (UniProt O88174)
T2 sequence: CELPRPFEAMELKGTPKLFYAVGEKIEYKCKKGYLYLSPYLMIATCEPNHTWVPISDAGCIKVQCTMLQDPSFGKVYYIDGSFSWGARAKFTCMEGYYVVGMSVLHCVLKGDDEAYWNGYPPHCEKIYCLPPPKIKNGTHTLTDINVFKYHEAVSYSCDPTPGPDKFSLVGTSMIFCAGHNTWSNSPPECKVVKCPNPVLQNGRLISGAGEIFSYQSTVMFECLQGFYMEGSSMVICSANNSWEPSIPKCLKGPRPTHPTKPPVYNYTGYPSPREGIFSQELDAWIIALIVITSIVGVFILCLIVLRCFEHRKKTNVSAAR

B1: purified complement factor I (protein, UniProt Q61129 19-603)
chain: T1 sequence

How the values were obtained:
[1] = target: T1, purified complement factor I; experiment: ELISA; CFI (20 µg/ml) or C3b (20 µg/ml) coated overnight at 4 °C; rmCD46 or mutants (40 µg/ml) at 37 °C for 2 h; anti-His detection; both purified
[2] = target: T2, Flag-tagged mouse CD46 (mCD46) expressed in HEK293T cells (mouse); experiment: fluorescence of antibody-stained cells (microplate reader); HEK293T cells expressing Flag-tagged mCD46 or mutants incubated with CFI (20 µg/ml) or C3b (20 µg/ml) at 37 °C for 1 h, fixed; antibody to C3b or CFI, FITC-labeled secondary antibody; only the binder purified

| Molecule | binding [1] | binding [2] |
| --- | --- | --- |
| recombinant mCD46 (rmCD46) (from UniProt O88174 43-328) (domain or fragment) | binds | – |
| B1 | – | binds |
